According to doi:10.1101/2023.01.31.526478:
These are yes or no findings as the source states them, for the method shown. Binding seen in cells or lysates may run through a third protein. A yes stands for co-enrichment or nearness to the bait. Other partners may have been found.

The chains behind the UniProt entries cited, without tags or fusion partners.
UniProt Q9Y657: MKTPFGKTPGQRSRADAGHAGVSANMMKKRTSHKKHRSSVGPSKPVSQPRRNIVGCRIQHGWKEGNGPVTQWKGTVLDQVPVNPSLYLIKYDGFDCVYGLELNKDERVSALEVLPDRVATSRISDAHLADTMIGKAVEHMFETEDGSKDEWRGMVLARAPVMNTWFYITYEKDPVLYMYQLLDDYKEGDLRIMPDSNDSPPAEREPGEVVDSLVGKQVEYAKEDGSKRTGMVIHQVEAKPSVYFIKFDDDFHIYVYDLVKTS
UniProt Q96EB6: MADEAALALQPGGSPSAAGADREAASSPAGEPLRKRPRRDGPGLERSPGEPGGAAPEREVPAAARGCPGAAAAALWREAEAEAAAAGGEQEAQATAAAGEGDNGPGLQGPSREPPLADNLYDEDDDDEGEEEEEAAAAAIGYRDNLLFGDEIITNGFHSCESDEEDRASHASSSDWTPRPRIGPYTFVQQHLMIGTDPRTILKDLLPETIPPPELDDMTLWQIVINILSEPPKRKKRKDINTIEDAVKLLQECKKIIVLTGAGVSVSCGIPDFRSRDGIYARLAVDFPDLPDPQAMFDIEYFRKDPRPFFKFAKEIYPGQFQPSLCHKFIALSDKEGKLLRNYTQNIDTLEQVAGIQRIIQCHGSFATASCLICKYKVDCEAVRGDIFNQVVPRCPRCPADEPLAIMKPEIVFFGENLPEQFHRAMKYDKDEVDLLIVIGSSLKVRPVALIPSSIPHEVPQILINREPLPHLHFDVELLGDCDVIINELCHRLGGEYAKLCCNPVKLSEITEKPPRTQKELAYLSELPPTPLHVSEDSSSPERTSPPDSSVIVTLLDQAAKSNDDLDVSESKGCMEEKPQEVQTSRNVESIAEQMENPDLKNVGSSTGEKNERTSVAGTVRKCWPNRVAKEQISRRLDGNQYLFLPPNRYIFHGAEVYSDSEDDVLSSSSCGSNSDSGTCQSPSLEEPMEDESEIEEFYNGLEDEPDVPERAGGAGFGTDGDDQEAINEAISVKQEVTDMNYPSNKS
UniProt Q7Z6Z7: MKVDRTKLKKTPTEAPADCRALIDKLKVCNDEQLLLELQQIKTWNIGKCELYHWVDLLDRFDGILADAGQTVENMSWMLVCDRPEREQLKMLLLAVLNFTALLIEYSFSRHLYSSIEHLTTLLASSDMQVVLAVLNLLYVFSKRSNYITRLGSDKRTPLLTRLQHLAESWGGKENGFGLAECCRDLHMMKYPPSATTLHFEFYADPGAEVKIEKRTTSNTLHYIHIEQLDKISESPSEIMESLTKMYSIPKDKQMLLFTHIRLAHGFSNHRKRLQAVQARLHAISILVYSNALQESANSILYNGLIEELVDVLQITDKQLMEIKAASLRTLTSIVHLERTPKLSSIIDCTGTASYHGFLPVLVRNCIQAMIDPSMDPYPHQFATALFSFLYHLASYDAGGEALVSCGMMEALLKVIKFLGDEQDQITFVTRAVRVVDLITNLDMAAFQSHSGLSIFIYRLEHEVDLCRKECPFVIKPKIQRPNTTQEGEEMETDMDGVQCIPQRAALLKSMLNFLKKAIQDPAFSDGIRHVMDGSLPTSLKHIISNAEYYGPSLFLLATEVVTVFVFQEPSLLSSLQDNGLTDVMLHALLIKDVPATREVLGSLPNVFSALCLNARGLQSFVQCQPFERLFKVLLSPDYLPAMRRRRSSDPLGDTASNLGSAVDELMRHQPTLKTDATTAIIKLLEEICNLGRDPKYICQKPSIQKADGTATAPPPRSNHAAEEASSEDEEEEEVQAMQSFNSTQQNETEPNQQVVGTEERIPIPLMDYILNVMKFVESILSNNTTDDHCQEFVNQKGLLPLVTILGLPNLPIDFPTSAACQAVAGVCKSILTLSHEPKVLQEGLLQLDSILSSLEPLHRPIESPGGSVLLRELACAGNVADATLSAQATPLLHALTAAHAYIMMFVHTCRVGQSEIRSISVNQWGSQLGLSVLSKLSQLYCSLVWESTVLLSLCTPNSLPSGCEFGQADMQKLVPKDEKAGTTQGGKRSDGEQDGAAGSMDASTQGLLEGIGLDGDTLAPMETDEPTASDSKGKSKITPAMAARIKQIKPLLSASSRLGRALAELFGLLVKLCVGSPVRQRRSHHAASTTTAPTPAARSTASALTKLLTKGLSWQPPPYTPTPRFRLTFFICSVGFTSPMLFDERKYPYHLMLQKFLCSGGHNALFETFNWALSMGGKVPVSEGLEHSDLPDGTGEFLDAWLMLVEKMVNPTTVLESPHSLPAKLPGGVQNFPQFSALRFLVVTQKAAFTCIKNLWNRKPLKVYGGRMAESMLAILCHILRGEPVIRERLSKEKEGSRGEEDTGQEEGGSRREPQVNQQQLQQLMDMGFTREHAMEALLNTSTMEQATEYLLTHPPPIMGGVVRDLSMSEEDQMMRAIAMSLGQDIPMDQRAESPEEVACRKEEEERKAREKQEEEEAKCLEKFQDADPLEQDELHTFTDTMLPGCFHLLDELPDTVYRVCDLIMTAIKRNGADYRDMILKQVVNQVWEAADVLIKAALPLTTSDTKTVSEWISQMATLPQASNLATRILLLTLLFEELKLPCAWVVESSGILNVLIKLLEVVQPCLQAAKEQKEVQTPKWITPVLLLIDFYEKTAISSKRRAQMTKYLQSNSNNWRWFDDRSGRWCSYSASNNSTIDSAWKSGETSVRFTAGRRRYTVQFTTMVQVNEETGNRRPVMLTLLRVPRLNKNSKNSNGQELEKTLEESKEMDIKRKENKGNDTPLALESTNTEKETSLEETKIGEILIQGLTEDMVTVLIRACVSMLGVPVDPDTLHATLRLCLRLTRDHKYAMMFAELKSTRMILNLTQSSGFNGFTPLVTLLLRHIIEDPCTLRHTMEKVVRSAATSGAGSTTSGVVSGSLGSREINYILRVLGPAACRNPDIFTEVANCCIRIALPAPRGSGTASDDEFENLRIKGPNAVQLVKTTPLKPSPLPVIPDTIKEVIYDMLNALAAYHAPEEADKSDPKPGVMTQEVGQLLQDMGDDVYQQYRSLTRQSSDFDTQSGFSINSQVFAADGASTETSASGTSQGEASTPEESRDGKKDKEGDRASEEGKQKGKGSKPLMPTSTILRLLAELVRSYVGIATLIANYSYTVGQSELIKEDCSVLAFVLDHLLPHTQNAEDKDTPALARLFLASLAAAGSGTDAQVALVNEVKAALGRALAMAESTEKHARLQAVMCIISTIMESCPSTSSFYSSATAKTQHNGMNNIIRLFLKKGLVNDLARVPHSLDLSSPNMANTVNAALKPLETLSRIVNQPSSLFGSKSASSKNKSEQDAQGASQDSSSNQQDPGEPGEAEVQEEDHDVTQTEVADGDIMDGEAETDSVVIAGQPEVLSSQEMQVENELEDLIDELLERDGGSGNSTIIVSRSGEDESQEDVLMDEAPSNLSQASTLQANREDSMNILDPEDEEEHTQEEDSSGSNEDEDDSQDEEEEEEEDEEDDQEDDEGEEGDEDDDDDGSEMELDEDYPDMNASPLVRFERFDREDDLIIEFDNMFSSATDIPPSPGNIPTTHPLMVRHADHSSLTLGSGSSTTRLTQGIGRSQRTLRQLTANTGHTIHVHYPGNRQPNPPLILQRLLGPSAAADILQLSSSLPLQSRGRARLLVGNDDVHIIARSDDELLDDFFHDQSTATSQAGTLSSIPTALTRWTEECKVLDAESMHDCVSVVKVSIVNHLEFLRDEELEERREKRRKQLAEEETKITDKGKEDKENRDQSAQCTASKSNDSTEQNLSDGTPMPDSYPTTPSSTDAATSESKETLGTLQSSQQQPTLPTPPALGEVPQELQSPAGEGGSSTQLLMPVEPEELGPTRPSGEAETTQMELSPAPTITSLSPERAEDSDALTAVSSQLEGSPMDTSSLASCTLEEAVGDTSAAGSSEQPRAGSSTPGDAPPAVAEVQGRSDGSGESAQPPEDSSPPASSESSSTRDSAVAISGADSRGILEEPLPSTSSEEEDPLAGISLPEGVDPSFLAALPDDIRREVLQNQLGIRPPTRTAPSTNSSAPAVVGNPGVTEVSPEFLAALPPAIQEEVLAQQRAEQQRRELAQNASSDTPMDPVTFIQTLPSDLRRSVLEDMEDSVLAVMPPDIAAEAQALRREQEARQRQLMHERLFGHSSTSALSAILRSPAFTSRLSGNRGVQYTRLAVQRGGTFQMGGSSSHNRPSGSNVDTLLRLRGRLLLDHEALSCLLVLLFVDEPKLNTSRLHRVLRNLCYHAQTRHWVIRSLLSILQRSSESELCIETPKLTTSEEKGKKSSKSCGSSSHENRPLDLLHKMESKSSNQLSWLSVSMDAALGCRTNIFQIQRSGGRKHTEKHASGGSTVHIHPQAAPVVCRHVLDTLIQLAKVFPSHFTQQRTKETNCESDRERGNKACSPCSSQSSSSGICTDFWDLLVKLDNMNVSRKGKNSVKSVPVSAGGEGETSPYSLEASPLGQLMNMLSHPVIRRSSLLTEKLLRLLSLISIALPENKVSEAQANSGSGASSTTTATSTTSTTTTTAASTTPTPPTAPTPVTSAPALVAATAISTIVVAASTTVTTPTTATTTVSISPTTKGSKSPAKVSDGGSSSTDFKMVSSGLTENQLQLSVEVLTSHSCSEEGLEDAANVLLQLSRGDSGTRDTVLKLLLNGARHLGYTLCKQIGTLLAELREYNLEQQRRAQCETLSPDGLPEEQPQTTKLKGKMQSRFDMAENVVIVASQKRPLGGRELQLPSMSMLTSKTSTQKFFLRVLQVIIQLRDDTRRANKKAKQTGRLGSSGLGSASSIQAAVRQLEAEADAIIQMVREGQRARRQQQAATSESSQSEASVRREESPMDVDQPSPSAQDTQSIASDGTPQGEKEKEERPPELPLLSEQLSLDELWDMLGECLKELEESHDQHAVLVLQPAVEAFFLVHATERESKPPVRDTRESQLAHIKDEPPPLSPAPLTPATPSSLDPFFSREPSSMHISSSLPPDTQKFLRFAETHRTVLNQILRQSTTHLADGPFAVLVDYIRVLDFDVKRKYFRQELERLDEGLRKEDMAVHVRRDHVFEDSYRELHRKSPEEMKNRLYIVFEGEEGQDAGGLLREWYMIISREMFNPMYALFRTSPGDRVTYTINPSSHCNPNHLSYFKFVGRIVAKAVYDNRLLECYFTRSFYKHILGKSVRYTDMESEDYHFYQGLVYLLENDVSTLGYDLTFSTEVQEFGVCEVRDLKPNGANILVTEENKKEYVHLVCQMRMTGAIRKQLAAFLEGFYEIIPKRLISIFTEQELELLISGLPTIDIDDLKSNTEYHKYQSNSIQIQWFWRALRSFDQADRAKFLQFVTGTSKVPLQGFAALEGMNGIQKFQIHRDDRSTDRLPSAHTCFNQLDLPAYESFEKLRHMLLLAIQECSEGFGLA
UniProt P50990: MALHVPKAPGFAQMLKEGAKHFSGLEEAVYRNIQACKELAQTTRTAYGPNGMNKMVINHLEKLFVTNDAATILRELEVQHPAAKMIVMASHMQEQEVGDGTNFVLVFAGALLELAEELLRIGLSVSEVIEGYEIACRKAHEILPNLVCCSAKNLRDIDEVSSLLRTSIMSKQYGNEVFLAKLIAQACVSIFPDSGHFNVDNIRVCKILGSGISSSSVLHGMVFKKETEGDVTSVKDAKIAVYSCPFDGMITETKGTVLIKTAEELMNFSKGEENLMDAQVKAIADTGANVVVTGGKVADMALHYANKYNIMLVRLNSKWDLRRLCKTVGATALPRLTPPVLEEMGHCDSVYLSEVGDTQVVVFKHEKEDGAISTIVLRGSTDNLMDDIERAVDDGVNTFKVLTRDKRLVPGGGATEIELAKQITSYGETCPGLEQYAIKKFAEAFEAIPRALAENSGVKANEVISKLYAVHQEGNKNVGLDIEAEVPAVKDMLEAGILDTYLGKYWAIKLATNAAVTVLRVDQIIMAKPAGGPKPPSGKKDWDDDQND
UniProt P83916: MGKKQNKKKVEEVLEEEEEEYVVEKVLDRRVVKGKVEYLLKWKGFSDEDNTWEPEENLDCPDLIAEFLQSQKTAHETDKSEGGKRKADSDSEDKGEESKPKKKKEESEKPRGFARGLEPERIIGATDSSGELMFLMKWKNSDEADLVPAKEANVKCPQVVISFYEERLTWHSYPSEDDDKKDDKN
UniProt P54727: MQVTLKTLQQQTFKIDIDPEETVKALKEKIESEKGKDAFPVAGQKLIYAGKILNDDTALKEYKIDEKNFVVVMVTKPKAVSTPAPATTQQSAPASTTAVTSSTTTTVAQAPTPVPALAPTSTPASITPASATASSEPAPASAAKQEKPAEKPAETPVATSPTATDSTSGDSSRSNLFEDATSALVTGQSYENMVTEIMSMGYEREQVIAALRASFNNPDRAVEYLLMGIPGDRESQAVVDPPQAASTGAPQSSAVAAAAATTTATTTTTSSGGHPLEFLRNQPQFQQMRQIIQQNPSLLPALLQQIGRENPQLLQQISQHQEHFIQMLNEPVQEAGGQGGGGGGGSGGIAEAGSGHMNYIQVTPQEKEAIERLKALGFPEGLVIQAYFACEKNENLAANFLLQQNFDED

Tests used:
[1] = biological target: Halo-SPIN1 (human) (UniProt Q9Y657); test: affinity purification with mass spectrometry
[2] = biological target: T1, Halo-WDR76 (human) (UniProt Q9H967); test: affinity purification with mass spectrometry
T1 sequence (chain, HaloTag TMRDirect ligand on the Halo tag (imaging experiments only)): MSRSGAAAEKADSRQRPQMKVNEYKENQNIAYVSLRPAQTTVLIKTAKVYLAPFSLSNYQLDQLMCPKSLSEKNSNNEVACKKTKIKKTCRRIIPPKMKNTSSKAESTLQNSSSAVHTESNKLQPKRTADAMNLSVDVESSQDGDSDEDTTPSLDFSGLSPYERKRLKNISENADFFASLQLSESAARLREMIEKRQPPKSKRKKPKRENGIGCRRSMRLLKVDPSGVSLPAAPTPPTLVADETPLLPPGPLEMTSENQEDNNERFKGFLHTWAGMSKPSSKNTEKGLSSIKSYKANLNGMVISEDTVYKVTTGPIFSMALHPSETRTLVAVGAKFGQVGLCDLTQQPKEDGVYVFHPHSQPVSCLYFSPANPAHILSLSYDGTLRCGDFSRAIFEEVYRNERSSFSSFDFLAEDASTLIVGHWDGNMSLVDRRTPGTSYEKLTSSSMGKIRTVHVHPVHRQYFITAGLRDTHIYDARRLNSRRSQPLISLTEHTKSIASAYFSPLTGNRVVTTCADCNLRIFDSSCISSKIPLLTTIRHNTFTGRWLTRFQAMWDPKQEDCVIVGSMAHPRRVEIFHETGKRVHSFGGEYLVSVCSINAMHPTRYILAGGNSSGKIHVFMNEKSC

| Molecule | binding [1] | binding [2] |
| --- | --- | --- |
| KMT2A (from UniProt Q03164) | binds |  |
| USP11 (from UniProt P51784 1-963) |  | binds |
| BCLAF1 (from UniProt Q9NYF8 1-920) | binds |  |
| CCT7 (from UniProt Q99832 1-543) |  | binds |
| DPY30 (from UniProt Q9C005 1-99) | binds |  |
| USP9X (from UniProt Q93008 1-2554) |  | binds |
| KMT2B (from UniProt Q9UMN6 1-2715) | binds |  |
| DNA-PKcs (PRKDC) (from UniProt P78527 1-4128) |  | binds |
| SIRT1 (from UniProt Q96EB6) |  | binds |
| PARP1 (from UniProt P09874) |  | binds |
| HDAC2 (from UniProt Q92769 1-488) |  | binds |
| CBX3 (from UniProt Q13185 1-183) |  | binds |
| PRMT1 (from UniProt Q99873 1-371) | binds |  |
| lamin-B receptor (LBR) (from UniProt Q14739 1-615) | binds |  |
| DDB1 (from UniProt Q16531 1-1140) |  | binds |
| HUWE1 (from UniProt Q7Z6Z7 1-4374) |  | binds |
| HDAC1 (from UniProt Q13547 1-482) |  | binds |
| CCT8 (from UniProt P50990 1-548) |  | binds |

| Molecule | binding [1] | binding [2] |
| --- | --- | --- |
| XRCC6 (from UniProt P12956 1-609) |  | binds |
| CBX5 (from UniProt P45973 1-191) |  | binds |
| XRCC5 (from UniProt P13010 1-732) |  | binds |
| UBR5 (from UniProt O95071 1-2799) |  | binds |
| CCT5 (from UniProt P48643 1-541) |  | binds |
| RBBP5 (from UniProt Q15291 1-538) | binds |  |
| CBX1 (from UniProt P83916 1-185) |  | binds |
| USP7 (from UniProt Q93009 1-1102) |  | binds |
| RAD23B (from UniProt P54727 1-409) |  | binds |
| ASH2L (from UniProt Q9UBL3 1-628) | binds |  |
| MEN1 (from UniProt O00255 1-610) | binds |  |
| CCT2 (protein, UniProt P78371 1-535) MASLSLAPVNIFKAGADEERAETARLTSFIGAIAIGDLVKSTLGPKGMDKILLSSGRDASLMVTNDGATILKNIGVDNPAAKVLVDMSRVQDDEVGDGTTSVTVLAAELLREAESLIAKKIHPQTIIAGWREATKAAREALLSSAVDHGSDEVKFRQDLMNIAGTTLSSKLLTHHKDHFTKLAVEAVLRLKGSGNLEAIHIIKKLGGSLADSYLDEGFLLDKKIGVNQPKRIENAKILIANTGMDTDKIKIFGSRVRVDSTAKVAEIEHAEKEKMKEKVERILKHGINCFINRQLIYNYPEQLFGAAGVMAIEHADFAGVERLALVTGGEIASTFDHPELVKLGSCKLIEEVMIGEDKLIHFSGVALGEACTIVLRGATQQILDEAERSLHDALCVLAQTVKDSRTVYGGGCSEMLMAHAVTQLANRTPGKEAVAMESYAKALRMLPTIIADNAGYDSADLVAQLRAAHSEGNTTAGLDMREGTIGDMAILGITESFQVKRQVLLSAAEAAEVILRVDNIIKAAPRKRVPDHHPC |  | binds |
| HELLS (protein, UniProt Q9NRZ9 1-838) MPAERPAGSGGSEAPAMVEQLDTAVITPAMLEEEEQLEAAGLERERKMLEKARMSWDRESTEIRYRRLQHLLEKSNIYSKFLLTKMEQQQLEEQKKKEKLERKKESLKVKKGKNSIDASEEKPVMRKKRGREDESYNISEVMSKEEILSVAKKNKKENEDENSSSTNLCVEDLQKNKDSNSIIKDRLSETVRQNTKFFFDPVRKCNGQPVPFQQPKHFTGGVMRWYQVEGMEWLRMLWENGINGILADEMGLGKTVQCIATIALMIQRGVPGPFLVCGPLSTLPNWMAEFKRFTPDIPTMLYHGTQEERQKLVRNIYKRKGTLQIHPVVITSFEIAMRDRNALQHCYWKYLIVDEGHRIKNMKCRLIRELKRFNADNKLLLTGTPLQNNLSELWSLLNFLLPDVFDDLKSFESWFDITSLSETAEDIIAKEREQNVLHMLHQILTPFLLRRLKSDVALEVPPKREVVVYAPLSKKQEIFYTAIVNRTIANMFGSSEKETIELSPTGRPKRRTRKSINYSKIDDFPNELEKLISQIQPEVDRERAVVEVNIPVESEVNLKLQNIMMLLRKCCNHPYLIEYPIDPVTQEFKIDEELVTNSGKFLILDRMLPELKKRGHKVLLFSQMTSMLDILMDYCHLRDFNFSRLDGSMSYSEREKNMHSFNTDPEVFIFLVSTRAGGLGINLTAADTVIIYDSDWNPQSDLQAQDRCHRIGQTKPVVVYRLVTANTIDQKIVERAAAKRKLEKLIIHKNHFKGGQSGLNLSKNFLDPKELMELLKSRDYEREIKGSREKVISDKDLELLLDRSDLIDQMNASGPIKEKMGIFKILENSEDSSPECLF |  | binds |
| DCAF7 (protein, UniProt P61962 1-342) MSLHGKRKEIYKYEAPWTVYAMNWSVRPDKRFRLALGSFVEEYNNKVQLVGLDEESSEFICRNTFDHPYPTTKLMWIPDTKGVYPDLLATSGDYLRVWRVGETETRLECLLNNNKNSDFCAPLTSFDWNEVDPYLLGTSSIDTTCTIWGLETGQVLGRVNLVSGHVKTQLIAHDKEVYDIAFSRAGGGRDMFASVGADGSVRMFDLRHLEHSTIIYEDPQHHPLLRLCWNKQDPNYLATMAMDGMEVVILDVRVPCTPVARLNNHRACVNGIAWAPHSSCHICTAADDHQALIWDIQQMPRAIEDPILAYTAEGEINNVQWASTQPDWIAICYNNCLEILRV |  | binds |
| THRAP3 (protein, UniProt Q9Y2W1 1-955) MSKTNKSKSGSRSSRSRSASRSRSRSFSKSRSRSRSLSRSRKRRLSSRSRSRSYSPAHNRERNHPRVYQNRDFRGHNRGYRRPYYFRGRNRGFYPWGQYNRGGYGNYRSNWQNYRQAYSPRRGRSRSRSPKRRSPSPRSRSHSRNSDKSSSDRSRRSSSSRSSSNHSRVESSKRKSAKEKKSSSKDSRPSQAAGDNQGDEAKEQTFSGGTSQDTKASESSKPWPDATYGTGSASRASAVSELSPRERSPALKSPLQSVVVRRRSPRPSPVPKPSPPLSSTSQMGSTLPSGAGYQSGTHQGQFDHGSGSLSPSKKSPVGKSPPSTGSTYGSSQKEESAASGGAAYTKRYLEEQKTENGKDKEQKQTNTDKEKIKEKGSFSDTGLGDGKMKSDSFAPKTDSEKPFRGSQSPKRYKLRDDFEKKMADFHKEEMDDQDKDKAKGRKESEFDDEPKFMSKVIGANKNQEEEKSGKWEGLVYAPPGKEKQRKTEELEEESFPERSKKEDRGKRSEGGHRGFVPEKNFRVTAYKAVQEKSSSPPPRKTSESRDKLGAKGDFPTGKSSFSITREAQVNVRMDSFDEDLARPSGLLAQERKLCRDLVHSNKKEQEFRSIFQHIQSAQSQRSPSELFAQHIVTIVHHVKEHHFGSSGMTLHERFTKYLKRGTEQEAAKNKKSPEIHRRIDISPSTFRKHGLAHDEMKSPREPGYKAEGKYKDDPVDLRLDIERRKKHKERDLKRGKSRESVDSRDSSHSRERSAEKTEKTHKGSKKQKKHRRARDRSRSSSSSSQSSHSYKAEEYTEETEEREESTTGFDKSRLGTKDFVGPSERGGGRARGTFQFRARGRGWGRGNYSGNNNNNSNNDFQKRNREEEWDPEYTPKSKKYYLHDDREGEGSDKWVSRGRGRGAFPRGRGRFMFRKSSTSPKWAHDKFSGEEGEIEDDESGTENREEKDNIQPTTE | binds |  |
| FBL (protein, UniProt P22087 1-321) MKPGFSPRGGGFGGRGGFGDRGGRGGRGGFGGGRGRGGGFRGRGRGGGGGGGGGGGGGRGGGGFHSGGNRGRGRGGKRGNQSGKNVMVEPHRHEGVFICRGKEDALVTKNLVPGESVYGEKRVSISEGDDKIEYRAWNPFRSKLAAAILGGVDQIHIKPGAKVLYLGAASGTTVSHVSDIVGPDGLVYAVEFSHRSGRDLINLAKKRTNIIPVIEDARHPHKYRMLIAMVDVIFADVAQPDQTRIVALNAHTFLRNGGHFVISIKANCIDSTASAEAVFASEVKKMQQENMKPQEQLTLEPYERDHAVVVGVYRPPPKVKN | binds |  |
| GAN (gigaxonin) (protein, UniProt Q9H2C0 1-597) MAEGSAVSDPQHAARLLRALSSFREESRFCDAHLVLDGEEIPVQKNILAAASPYIRTKLNYNPPKDDGSTYKIELEGISVMVMREILDYIFSGQIRLNEDTIQDVVQAADLLLLTDLKTLCCEFLEGCIAAENCIGIRDFALHYCLHHVHYLATEYLETHFRDVSSTEEFLELSPQKLKEVISLEKLNVGNERYVFEAVIRWIAHDTEIRKVHMKDVMSALWVSGLDSSYLREQMLNEPLVREIVKECSNIPLSQPQQGEAMLANFKPRGYSECIVTVGGEERVSRKPTAAMRCMCPLYDPNRQLWIELAPLSMPRINHGVLSAEGFLFVFGGQDENKQTLSSGEKYDPDANTWTALPPMNEARHNFGIVEIDGMLYILGGEDGEKELISMECYDIYSKTWTKQPDLTMVRKIGCYAAMKKKIYAMGGGSYGKLFESVECYDPRTQQWTAICPLKERRFGAVACGVAMELYVFGGVRSREDAQGSEMVTCKSEFYHDEFKRWIYLNDQNLCIPASSSFVYGAVPIGASIYVIGDLDTGTNYDYVREFKRSTGTWHHTKPLLPSDLRRTGCAALRIANCKLFRLQLQQGLFRIRVHSP |  | binds |
